Results from PubChem BioAssay AID2685 (National Center for Advancing Translational Sciences (NCATS), 2010).
This is one part of the list. These are further read-outs of the screen, such as a control signal, another cell line or another target. No call is given for them. The list favours compounds with an active or inconclusive main result. The note in brackets gives the kind of curve behind each potency; many fits are weak.

Assay: qHTS Assay for Lipid Storage Modulators in Drosophila S3 Cells;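 for cell number change: cells counted by Cell Tracker Red CMTPX staining in the red channel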
Conditions: BODIPY lipid droplet fluorescence, 18-24 h; for cell number change: measured here: cell count max response, cells fed with added oleic acid
Outline: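 Drosophila S3 cells loaded with oleic acid (400 uM, as added) and compounds at several concentrations; lipid droplets imaged by 488-nm laser-scanning cytometry, 500–530 nm intensity and object ratio to cell channel. Percent activity normalized to 20 uM Triacsin C.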

[1] = measured here: cell number channel AC50, cells fed with added oleic acid
[2] = measured here: lipid fluorescence (Fed channel) AC50, cells fed with added oleic acid

| SMILES | cell number change [%] | AC50 [1] | AC50 [2] |
| --- | --- | --- | --- |
| O=C(Nn1c(Cc2cccs2)nc2ccccc2c1=O)c1cccs1 | -15.9 | 0.00517 µM [falling, full curve, poor fit] | 0.00461 µM [falling, full curve, poor fit] |
| Cc1cc(C)c2oc(=O)cc(CN3CCN(Cc4ccc5c(c4)OCO5)CC3)c2c1 | -3.17 | – | 0.461 µM [rising, single point] |
| CCOC(=O)CCCn1c(C)nc(=O)c(-c2ccccc2)c1C | -35.1 | 0.411 µM [falling, full curve, poor fit] | 0.82 µM [falling, full curve, poor fit] |
| O=C(/C=C/c1ccco1)Nc1ccc(S(=O)(=O)N2CCOCC2)cc1 | -7.16 | – | – |
| OC(COc1ccc(Br)cc1)CN1CCOCC1 (stereo not given) | -14.1 | 6.51 µM [falling, single point] | – |
| Cc1ccc(NC(=O)CSc2nnc(Cc3cccn3C)n2-c2ccc(F)cc2)c(C)c1 | 1.04 | – | – |
| CCn1c(NC(=O)Nc2cccc(C)c2C)cc2sccc21 | -1.45 | – | 0.651 µM [rising, full curve, poor fit] |
| CCOC(=O)c1cc(C#N)c(N2CCOCC2)nc1-c1ccccc1 | 11.8 | – | – |
| CCCNC(=O)C(Cc1ccc(F)cc1)NC(=O)c1ccccc1 (stereo not given) | -11.2 | 0.58 µM [rising, partial curve] | 0.00517 µM [falling, full curve, poor fit] |
| CN(C)/C=C/C(=O)C(F)(F)F | 32.7 | – | – |
| CCNC(=O)Nc1nc2ccccc2s1 | -43.8 | 9.2 µM [falling, partial curve] | 20.6 µM [falling, single point] |
| COc1ccccc1-n1cnc2cc(C(=O)NCCCN3CCOCC3)ccc21 | – | 1.3 µM [rising, partial curve] | – |
| O=C(CSc1ncnc2ccccc12)N1CCCC1 | 3.92 | – | 0.58 µM [falling, single point] |
| COC(=O)C(/C=N/O)NC(=O)c1ccccc1 (stereo not given) | -3.52 | – | – |
| COc1ccc(CNC(=O)COC(=O)c2cc(-c3ccco3)nc3ccccc23)cc1 | – | – | 6.51 µM [rising, single point] |
| CSCCC(NS(=O)(=O)c1ccc(C)cc1)C(=O)NNC(=O)c1csc(N2CCOCC2)n1 (stereo not given) | 21 | – | – |
| O=C(NNC(=O)C12CC3CC(CC(C3)C1)C2)c1cnccn1 | 69.1 | 29.1 µM [rising, single point] | 8.2 µM [falling, partial curve, poor fit] |
| Cc1c(Br)c([N+](=O)[O-])nn1CC(=O)Nc1sc2c(c1C(=O)OC(C)C)CCC(C)C2 (stereo not given) | 6.85 | – | 29.1 µM [rising, single point] |
| COc1ccccc1OCC(=O)NNC(=O)c1cccs1 | 50 | 16.4 µM [rising, single point] | 11.6 µM [rising, single point] |
| Cc1sc(NC(=O)C2CSC3(C)CCC(=O)N23)nc1-c1ccc(F)cc1 (stereo not given) | 12.1 | – | 2.82 µM [rising, partial curve] |

| SMILES | cell number change [%] | AC50 [1] | AC50 [2] |
| --- | --- | --- | --- |
| Cc1ccc(NC2CCCCC2NS(=O)(=O)c2ccc(Cl)cc2)cc1 (stereo not given) | -3.47 | – | 4.11 µM [rising, single point] |
| Cc1ccc(S(=O)(=O)N2CCN(CC(=O)N/N=C/c3ccco3)CC2)cc1 | 30.3 | 5.17 µM [rising, full curve, poor fit] | 0.231 µM [falling, full curve] |
| CCN(C(=O)COC(=O)c1cc(S(=O)(=O)N2CCOCC2)c(Cl)cc1Cl)C1CCS(=O)(=O)C1 (stereo not given) | -2.39 | – | 0.82 µM [rising, partial curve, poor fit] |
| O=c1n(CCCN2CCN(c3cccc(Cl)c3)CC2)nc2ccccn12 | 30.7 | 20.6 µM [rising, single point] | 29.1 µM [rising, single point] |
| CCN(CC)CCNC(=O)c1cn(C)c2ccc(S(=O)(=O)N(C)C3CCCCC3)cc2c1=O | 5.74 | – | – |
| O=c1cc(CN2CCN(S(=O)(=O)c3ccccc3)CC2)nc2ccc(Cl)cn12 | -8.3 | – | 2.59 µM [rising, single point] |
| COc1ccc(S(=O)(=O)NCCOc2cccc3cccnc23)cc1OC | -33.6 | – | 29.1 µM [falling, partial curve, poor fit] |
| COCCn1c(SCC(=O)Nc2ccccc2F)nc2c([nH]c3ccccc32)c1=O | 32.2 | 0.0517 µM [rising, full curve, poor fit] | 0.116 µM [rising, full curve, poor fit] |
| CCN(C(=O)COC(=O)CCCN1C(=O)c2cccc3cccc(c23)C1=O)C1CCS(=O)(=O)C1 (stereo not given) | 17.5 | – | – |
| C=C(C)Cn1c(SCCN2CCOCC2)nc2c1c(=O)[nH]c(=O)n2C | -3.22 | – | 13 µM [rising, partial curve, poor fit] |
| O=S(=O)(Cc1ccccc1)N1CCNCC1 | 7.89 | 0.58 µM [rising, single point] | – |
| O=C(NNC(=O)c1ccc(O)cc1O)c1ccc(Cl)cc1 | -86.1 | 29.1 µM [falling, partial curve, poor fit] | – |
| CCOc1ccc(CN2CCN(S(=O)(=O)c3ccc(NC(C)=O)cc3)CC2)cc1 | – | – | 29.1 µM [rising, single point] |
| Cc1c(NC(=O)c2ccccc2N(C)S(=O)(=O)c2ccccc2)c(=O)n(-c2ccccc2)n1C | 33.3 | 0.291 µM [rising, partial curve, poor fit] | 5.8 µM [falling, single point] |
| CCn1c(C)cc(C)c(C#N)c1=O | – | 0.92 µM [falling, full curve, poor fit] | 0.0058 µM [falling, full curve, poor fit] |
| COc1ccc(S(=O)(=O)Nc2ccc3c(c2)n(C)c(=O)n3C)cc1C | -14.3 | – | – |
| CCNC(=O)CN(c1ccc(CC)cc1)S(C)(=O)=O | 12.3 | – | 4.11 µM [falling, full curve] |
| CN(Cc1ccccc1)C(=O)COC(=O)c1cncc(Br)c1 | -47.2 | 29.1 µM [falling, single point] | 20.6 µM [falling, partial curve] |
| O=C(COc1cccc(NC(=O)c2ccco2)c1)c1ccc(F)cc1 | – | 2.06 µM [rising, partial curve] | 6.51 µM [rising, single point] |
| COc1cc2[nH]c(=O)n(CCC(=O)N3CCC(N4CCCCC4)CC3)c(=O)c2cc1OC | 34.3 | 29.1 µM [rising, single point] | 29.1 µM [rising, single point] |

| SMILES | cell number change [%] | AC50 [1] | AC50 [2] |
| --- | --- | --- | --- |
| CC1=NNC(=O)/C1=C\c1cn(-c2ccccc2)nc1-c1ccccc1 | -56.4 | 0.259 µM [falling, full curve] | 0.231 µM [falling, full curve] |
| OCCn1ccc(-c2ccccc2OCc2ccc(F)cc2)n1 | 20.9 | – | 8.2 µM [rising, partial curve] |
| Cc1nonc1CN(C)C(=O)c1cc(COc2ccc(F)cc2Cl)on1 | -14.7 | – | 0.0651 µM [rising, full curve, poor fit] |
| COCc1cc(C)[nH]c(=O)c1C(=O)NC12CC3CC(CC(C3)C1)C2 | -8.23 | – | – |
| COc1ccc(-c2noc(CN(C(=O)c3ccc4c(c3)OCO4)C(C)C)n2)cc1 | 2.1 | – | 0.326 µM [falling, single point] |
| CCCOc1ccccc1OCC(=O)Nc1ccc(S(=O)(=O)N2CCCC2)cc1 | -54 | 18.4 µM [falling, partial curve] | 7.31 µM [falling, partial curve] |
| c1ccc2c(COn3nnc4ccccc43)cccc2c1 | 166 | 11.6 µM [rising, partial curve] | 4.61 µM [rising, partial curve] |
| O=C(COC(=O)c1cnccn1)NCCc1ccc(Cl)cc1Cl | -17.8 | 0.00461 µM [rising, full curve, poor fit] | – |
| O=C(c1cccs1)c1coc2ccc(O)c(CN(CCO)CCO)c12 | – | 0.651 µM [falling, single point] | – |
| CCCCNC(=S)NC(=O)c1ccccc1Br | 1.8 | 0.731 µM [rising, full curve] | 6.51 µM [rising, partial curve] |
| Cc1cccc(-c2nnc(SCC(=O)N3CCOCC3)o2)c1 | -10.5 | – | – |
| Cn1c(=O)c2c(ncn2Cc2nnc(N)s2)n(C)c1=O | -45.9 | – | 6.51 µM [falling, partial curve, poor fit] |
| CCCOc1cccc(C(=O)NCCCNC(=O)c2ccccn2)c1 | -5.52 | – | 29.1 µM [rising, single point] |
| Nc1nc(SCC(=O)NCc2ccc3c(c2)OCO3)n[nH]1 | – | 0.891 µM [falling, full curve] | 2.51 µM [falling, partial curve] |
| O=C(N/N=C/c1cccnc1)c1cccc(F)c1 | 9.61 | – | 29.1 µM [rising, single point] |
| O=C(Nc1ccnc(-c2ccncc2)n1)C1CC1 | 20 | – | 0.0082 µM [falling, full curve, poor fit] |
| Nc1nc(NCc2ccco2)nn1-c1ccccc1 | -13.5 | – | 2.59 µM [falling, full curve] |
| CCCSc1cc(N2CCN(C)CC2)nc(-c2ccc(OC)cc2)n1 | -36.9 | – | 0.164 µM [falling, full curve, poor fit] |
| COc1cc(-c2cc(C(=O)Nc3cccc(C(C)=O)c3)c3ccccc3n2)cc(OC)c1OC | 335 | 20.6 µM [rising, partial curve] | 0.116 µM [falling, single point] |

Filtered by structure, the compounds so far containing a cyano group.

| SMILES | cell number change [%] | AC50 [1] | AC50 [2] |
| --- | --- | --- | --- |
| CCOC(=O)c1cc(C#N)c(N2CCOCC2)nc1-c1ccccc1 | 11.8 | – | – |
| CCn1c(C)cc(C)c(C#N)c1=O | – | 0.92 µM [falling, full curve, poor fit] | 0.0058 µM [falling, full curve, poor fit] |
